PubChem BioAssay AID504774 – Drosophila RNAi Screening Center – 2011
The deposit covers about 23,000 reagents; shown is a random part of those with a known target gene and a result. 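Values are quantile-normalised luminescence on an arbitrary scale; higher means more cells surviving MMS.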 The numbers tell different reagents against one gene apart. Not all columns of the deposit are shown.

Aim: 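Fly genes whose loss alters survival after alkylation damage to DNA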 (primary screen)
System: Drosophila Kc167 cells
Reagents: long dsRNA against Drosophila genes, about 0.25 µg dsRNA per well
Duration: about 6 days: 3 days knock-down, then 3 days with or without MMS
Treatment: methyl methanesulphonate 0.004% (w/v) for 3 days after knock-down
Detection: 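Viability in wells given MMS, read as ATP luminescence, normalised by quantiles plate by plate and averaged across replicates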
Scale: mean viability with MMS and viability with MMS: higher = more surviving cells after MMS

Against dl #1, the entry reads mean viability with MMS 3.27e6; viability with MMS, replicate 1 = 3.86e6.
Against dl #2, the entry reads mean viability with MMS 3.59e6; viability with MMS, replicate 1 = 4.03e6.
Depletion of ITP resulted in: mean viability with MMS 3.50e6; viability with MMS, replicate 1 = 4.15e6.
For RpS20 the deposit lists mean viability with MMS 3.66e6; viability with MMS, replicate 1 = 3.60e6.
With knock-down of retn the results were mean viability with MMS 3.64e6; viability with MMS, replicate 1 = 4.20e6.
Knock-down of Pax #1 resulted in: mean viability with MMS 3.59e6; viability with MMS, replicate 1 = 4.02e6.
Silencing of Pax #2 resulted in: mean viability with MMS 3.63e6; viability with MMS, replicate 1 = 4.12e6.
Against Pax #3, the entry reads mean viability with MMS 3.58e6; viability with MMS, replicate 1 = 4.07e6.
Pms2 showed mean viability with MMS 3.45e6; viability with MMS, replicate 1 = 4.03e6.
Silencing of CG11951 came out at: mean viability with MMS 3.65e6; viability with MMS, replicate 1 = 4.13e6.
Against CG13151, the entry reads mean viability with MMS 3.46e6; viability with MMS, replicate 1 = 3.99e6.
Silencing of Nfs1 came out at: mean viability with MMS 3.37e6; viability with MMS, replicate 1 = 3.95e6.
Silencing of CG30269 resulted in: mean viability with MMS 3.57e6; viability with MMS, replicate 1 = 3.85e6.
Against EDTP, the entry reads mean viability with MMS 3.67e6; viability with MMS, replicate 1 = 4.03e6.
With knock-down of Sema2b #1, the screen gave mean viability with MMS 3.47e6; viability with MMS, replicate 1 = 3.85e6.
For Sema2b #2, the entry reads mean viability with MMS 3.49e6; viability with MMS, replicate 1 = 3.92e6.
Sema2b #3 scored mean viability with MMS 3.74e6; viability with MMS, replicate 1 = 4.44e6.
Depletion of Mpp6 gave: mean viability with MMS 3.41e6; viability with MMS, replicate 1 = 3.85e6.
Depletion of Cpr67Fa2 gave: mean viability with MMS 3.71e6; viability with MMS, replicate 1 = 4.15e6.
Knock-down of rgn gave: mean viability with MMS 3.37e6; viability with MMS, replicate 1 = 3.84e6.
Silencing of CG11007 resulted in: mean viability with MMS 3.57e6; viability with MMS, replicate 1 = 4.00e6.
Depletion of CG31157 gave: mean viability with MMS 3.39e6; viability with MMS, replicate 1 = 3.87e6.
For CG30197 the deposit lists mean viability with MMS 3.44e6; viability with MMS, replicate 1 = 3.87e6.
CG15923 scored mean viability with MMS 3.62e6; viability with MMS, replicate 1 = 4.05e6.
Against CG4678 #1, the values are mean viability with MMS 3.57e6; viability with MMS, replicate 1 = 4.04e6.
Against CG4678 #2, the values are mean viability with MMS 3.61e6; viability with MMS, replicate 1 = 4.10e6.
Against Jhbp2, the entry reads mean viability with MMS 3.28e6; viability with MMS, replicate 1 = 3.66e6.
Against Eip74EF #1, the entry reads mean viability with MMS 2.97e6; viability with MMS, replicate 1 = 3.57e6.
Depletion of Eip74EF #2 came out at: mean viability with MMS 3.48e6; viability with MMS, replicate 1 = 3.94e6.
Knock-down of sav #1 gave: mean viability with MMS 3.57e6; viability with MMS, replicate 1 = 4.04e6.
sav #2 scored mean viability with MMS 3.60e6; viability with MMS, replicate 1 = 4.08e6.
Rab35 showed mean viability with MMS 3.60e6; viability with MMS, replicate 1 = 4.04e6.
Silencing of CG15136 resulted in: mean viability with MMS 3.50e6; viability with MMS, replicate 1 = 4.06e6.
Knock-down of htl came out at: mean viability with MMS 3.59e6; viability with MMS, replicate 1 = 4.07e6.
Knock-down of CG5664 resulted in: mean viability with MMS 1.83e6; viability with MMS, replicate 1 = 4.00e6.
Against CG32814, the values are mean viability with MMS 3.45e6; viability with MMS, replicate 1 = 3.94e6.
For CG31464, the values are mean viability with MMS 3.57e6; viability with MMS, replicate 1 = 4.12e6.
For CG14500 the deposit lists mean viability with MMS 3.63e6; viability with MMS, replicate 1 = 4.15e6.
Depletion of Sap130 gave: mean viability with MMS 3.81e6; viability with MMS, replicate 1 = 4.70e6.
With knock-down of Faa the results were mean viability with MMS 3.62e6; viability with MMS, replicate 1 = 4.16e6.
After knock-down of Octbeta3R #1 the results were mean viability with MMS 3.51e6; viability with MMS, replicate 1 = 3.98e6.
Against Octbeta3R #2, the entry reads mean viability with MMS 3.52e6; viability with MMS, replicate 1 = 4.00e6.
Depletion of Octbeta3R #3 resulted in: mean viability with MMS 3.47e6; viability with MMS, replicate 1 = 3.91e6.
Depletion of Octbeta3R #4 gave: mean viability with MMS 3.33e6; viability with MMS, replicate 1 = 3.86e6.
Against Octbeta3R #5, the values are mean viability with MMS 3.56e6; viability with MMS, replicate 1 = 3.94e6.

7 successive reagents already listed, for reference:
RpS20 | mean viability with MMS: 3.66e6; viability with MMS, replicate 1: 3.60e6
retn | mean viability with MMS: 3.64e6; viability with MMS, replicate 1: 4.20e6
Pax #1 | mean viability with MMS: 3.59e6; viability with MMS, replicate 1: 4.02e6
Pax #2 | mean viability with MMS: 3.63e6; viability with MMS, replicate 1: 4.12e6
Pax #3 | mean viability with MMS: 3.58e6; viability with MMS, replicate 1: 4.07e6
Pms2 | mean viability with MMS: 3.45e6; viability with MMS, replicate 1: 4.03e6
CG11951 | mean viability with MMS: 3.65e6; viability with MMS, replicate 1: 4.13e6
